Results are given in words; binding and its absence hold for the method and conditions named. Binding seen in cells or lysates may run through a third protein. Some binding calls cover weakened binding; strength is not graded here.

In the assay the target is T1, Transforming growth factor-β-activated kinase 1 (TAK1) (human (endogenous in SW480)) (UniProt O43318).
T1 sequence: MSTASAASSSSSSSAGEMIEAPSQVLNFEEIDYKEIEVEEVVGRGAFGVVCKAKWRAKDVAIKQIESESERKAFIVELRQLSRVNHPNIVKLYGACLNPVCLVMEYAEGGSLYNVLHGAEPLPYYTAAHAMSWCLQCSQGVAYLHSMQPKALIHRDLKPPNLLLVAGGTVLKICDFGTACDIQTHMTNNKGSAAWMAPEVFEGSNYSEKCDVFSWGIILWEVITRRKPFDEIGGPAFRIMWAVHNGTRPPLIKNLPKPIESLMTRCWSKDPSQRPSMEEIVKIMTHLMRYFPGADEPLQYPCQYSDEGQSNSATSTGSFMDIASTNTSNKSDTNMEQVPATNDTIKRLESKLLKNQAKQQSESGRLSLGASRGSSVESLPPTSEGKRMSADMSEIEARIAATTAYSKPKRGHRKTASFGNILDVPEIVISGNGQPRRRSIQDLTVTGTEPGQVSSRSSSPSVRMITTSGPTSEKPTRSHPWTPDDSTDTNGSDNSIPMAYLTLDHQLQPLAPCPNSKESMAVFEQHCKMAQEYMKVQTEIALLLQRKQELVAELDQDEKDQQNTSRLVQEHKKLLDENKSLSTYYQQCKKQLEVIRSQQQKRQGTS
Briefly: co-IP; co-IP among endogenous TAB3, TAK1 and TRAF6 in SW480 cells; procedure as previously described (ref. 37); also done after silencing (shTAB3, shTRAF6, shTAK1) or overexpression of TAB3, TRAF6 or TAK1 in CRC cells: the interaction decreased or increased.

B1: Transforming growth factor-β-activated kinase 1 (TAK1)-binding protein 3 (TAB3) (protein, UniProt Q8N5C8 1-712)
chain: MAQSSPQLDIQVLHDLRQRFPEIPEGVVSQCMLQNNNNLEACCRALSQESSKYLYMEYHSPDDNRMNRNRLLHINLGIHSPSSYHPGDGAQLNGGRTLVHSSSDGHIDPQHAAGKQLICLVQEPHSAPAVVAATPNYNPFFMNEQNRSAATPPSQPPQQPSSMQTGMNPSAMQGPSPPPPPPSYMHIPRYSTNPITVTVSQNLPSGQTVPRALQILPQIPSNLYGSPGSIYIRQTSQSSSGRQTPQSTPWQSSPQGPVPHYSQRPLPVYPHQQNYQPSQYSPKQQQIPQSAYHSPPPSQCPSPFSSPQHQVQPSQLGHIFMPPSPSTTPPHPYQQGPPSYQKQGSHSVAYLPYTASSLSKGSMKKIEITVEPSQRPGTAINRSPSPISNQPSPRNQHSLYTATTPPSSSPSRGISSQPKPPFSVNPVYITYTQPTGPSCTPSPSPRVIPNPTTVFKITVGRATTENLLNLVDQEERSAAPEPIQPISVIPGSGGEKGSHKYQRSSSSGSDDYAYTQALLLHQRARMERLAKQLKLEKEELERLKSEVNGMEHDLMQRRLRRVSCTTAIPTPEEMTRLRSMNRQLQINVDCTLKEVDLLQSRGNFDPKAMNNFYDNIEPGPVVPPKPSKKDSSDPCTIERKARRISVTSKVQADIHDTQAAAADEHRTGSTQSPRTQPRDEDYEGAPWNCDSCTFLNHPALNRCEQCEMPRYT
With B1, the binding result is given as “binds”.

The values above are taken from article PMC5739756.
